Measurements reported in PMC2833144.

What was measured:
Experiment in all cases: far-Western, overlay or dot blot; ligand affinity blot: purified GST fusion proteins separated by 10% Tris/Tricine SDS-PAGE, blotted to nitrocellulose; membranes incubated with non-immune animal sera; detected with a polyclonal anti-CFH antibody; only the target purified
[1] = molecular target: GST fusion of BGA66 of B. garinii ST4 PBi (B. garinii ST4 PBi)
[2] = molecular target: GST fusion of BGA67 of B. garinii ST4 PBi (B. garinii ST4 PBi)
[3] = molecular target: GST fusion of BGA68 of B. garinii ST4 PBi (B. garinii ST4 PBi)
[4] = molecular target: GST fusion of BGA71 of B. garinii ST4 PBi (B. garinii ST4 PBi)

Measured: binding

B1: bovine CFH (protein, UniProt Q28085 19-1236)
chain: EDCKEPPPRKETEILSGSWTEQTYQEGTQATYKCRPGYRTLGSIVMMCRGGKWVSLHPSRICRKKPCAHPGDTPFGSFHLAEGTQFEYGAKVVYTCDEGYQMVGEMNFRECDTNGWTNDIPICEVVKCLPVTEPENGKIFSDALEPDQEYTYGQVVQFECNSGYMLDGPKQIHCSAGGVWSAETPKCVEIFCKTPVILNGQAVLPKATYKANERVQYRCAAGFEYGQRGDTICTKSGWTPAPTCIEITCDPPRIPNGVYRPELSKYRGQDKITYECKKGFFPEIRGTDATCTRDGWVPVPRCAWKPCSYPVIKHGRLYYSYRGYFPARVNQQFVYSCDHHFVPPSQRSWDHLTCTAEGWSPEEPCLRQCIFNYLENGHTPYREEKYLQGETVRVRCYEGYSLQNDQNTMTCTESGWSPPPRCIRVKTCSKSNIRIENGFLSESTFTYPLNKQTEYKCKPGYVTADGKTSGLITCLKNGWSAQPVCIKSCDRPVFEKARVKSDGTWFRLNDRLDYECVDGYENRDGRTTGSIVCGQDGWSDKAACYERECSIPEMDPYLNAYPRKETYKVGDVLKFSCSQGRIMVGADSVQCYHFGWSPKLPTCKVKKVKSCALPPELPNGKRKEIHKEEYAHNEVVEYACNPRFLMKGSHKIQCVDGEWTALPVCIEEERTCGNIPDLDHGDVKPSVPPYHHGDSVEFSCREAFTMIGPRFITCISGEWTQPPQCIATDELRKCKGSTLFPPEGRQAHKIEYDHNTNKSYQCRGKSEHKHSICINGEWDPKVDCNEEAKIQLCPPPPQVPNACDMTTTVNYQDGEKISILCKENYLIQDAEEIVCKDGRWQSIPRCIEKIGCSQPPQIDHGTISSSSSAEERREIHEQRLYAHGTKLSYTCEEGFEISENNVIICHMGKWSSPPQCVGLPCGLPPYVQNGVVSHKKDRYQYGEEVTYDCDEGFGTDGPASIRCLGGEWSRPQDCISTNCVNLPTFEDAVLTDREKDFYRSGEQVAFKCLSYYQLDGSNTIQCIKSKWIGRPACRDVSCGNPPQVENAIIHNQKSKYQSEERARYECIGNYDLFGEMEVVCLNGTWTEPPQCKDSQGKCGPPPPIDNGDITSLLQSVYPPGMIVEYRCQAYYELRGNKNVVCRNGEWSQLPKCLEACVISEETMRKHHIQLRWKHDKKIYSKTEDTIEFMCQHGYRQLTPKHTFRATCREGKVVYPRCG
binds: all assays above

These are yes or no findings as the source states them, for the method shown. Binding calls can cover weak binding; strength is not graded here.
